For assay [1], the target named is GST-Miro1 WT (UniProt Q8IXI2). Briefly: pull-down; 20 ug GST fusion protein (or GST alone) on glutathione sepharose beads; 2.5 ul of one 35S-labelled in vitro translated protein; 1-2 hr at 4°C; 50 mM HEPES, 125 mM NaCl, 5 mM H-EDTA; no other proteins in the system; no added Ca2+, repeated with 2 mM Ca2+; phosphor storage screen; only the target purified.
In assay [2] the target is GST-Miro1 WT (UniProt Q8IXI2). Briefly: pull-down; as a1 but with KIF5C, TRAK2 (1-700) and GST-Miro1 (WT or ΔEF) all three present together; with and without Ca2+; only the target purified.

By UniProt entry, the sequences of proteins in these tests, tags left out. Where a name states a change or a piece, a line headed by the entry shows the natural chain unless it says otherwise.
UniProt Q8IXI2: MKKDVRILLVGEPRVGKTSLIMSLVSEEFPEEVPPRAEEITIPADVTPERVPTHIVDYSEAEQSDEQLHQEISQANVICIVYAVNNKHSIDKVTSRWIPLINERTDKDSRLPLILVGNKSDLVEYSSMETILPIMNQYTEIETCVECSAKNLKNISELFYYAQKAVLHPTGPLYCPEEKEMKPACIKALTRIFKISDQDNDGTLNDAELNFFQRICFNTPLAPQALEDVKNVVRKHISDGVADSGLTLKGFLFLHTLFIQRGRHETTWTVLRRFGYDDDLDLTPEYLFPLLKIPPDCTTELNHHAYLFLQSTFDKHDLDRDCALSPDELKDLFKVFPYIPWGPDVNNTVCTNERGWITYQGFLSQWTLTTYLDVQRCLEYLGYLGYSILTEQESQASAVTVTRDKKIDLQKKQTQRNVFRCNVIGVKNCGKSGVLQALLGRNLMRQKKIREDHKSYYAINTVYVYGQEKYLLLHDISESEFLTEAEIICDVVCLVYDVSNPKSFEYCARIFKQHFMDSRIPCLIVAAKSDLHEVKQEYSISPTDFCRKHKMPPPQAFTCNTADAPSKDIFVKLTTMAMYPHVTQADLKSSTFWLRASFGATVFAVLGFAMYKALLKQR

No constants are given. Whether binding was seen depends on the method and setting. Binding seen in cells or lysates may run through a third protein. A result given as binding can be weak or reduced; the word gives no strength.

B1: TRAK2 (amino acids 476–700) (domain or fragment, UniProt Q8R2H7 476-700)
chain: EDSDLATALHRLSLRRQNYLSEKQFFAEEWERKLQILAEQEEEVSSCEALTENLASFCTDQSETTELGSAGCLRGFMPEKLQIVKPLEGSQTLHHWQQLAQPNLGTILDPRPGVITKGFTQMPKDAVYHISDLEEDEEVGITFQVQQPLQLEQKPAPPPPVTGIFLPPMTSAGGPVSVATSNPGKCLSFTNSTFTFTTCRILHPSDITQVTPSSGFPSLSCGSSA
modifications: 35S-methionine label
For the molecule B1, in the assay with GST-Miro1 WT [1], the binding entry was “binds”.

B2: TRAK2 (amino acids 1–700) (domain or fragment, UniProt Q8R2H7 1-700)
chain: MSLSQNAIFKSQTGEENLMSSNHRDSESITDVCSNEDLPEVELVNLLEEQLPQYKLRVDSLFLYENQDWSQSSHQQQDASETLSPVLAEETFRYMILGTDRVEQMTKTYNDIDMVTHLLAERDRDLELAARIGQALLKRNHVLSEQNESLEEQLGQAFDQVNQLQHELSKKEELLRIVSIASEESETDSSCSTPLRFNESFSLSQGLLQLDMMHEKLKELEEENMALRSKACHIKTETFTYEEKEQKLINDCVNELRETNAQMSRMTEELSGKSDELLRYQEEISSLLSQIVDLQHKLKEHVIEKEELRLHLQASKDAQRQLTMELHELQDRNMECLGMLHESQEEIKELRNKAGPSAHLCFSQAYGVFAGESLAAEIEGTMRKKLSLDEESVFKQKAQQKRVFDTVKVANDTRGRSVTFPVLLPIPGSNRSSVIMTAKPFESGVQQTEDKTLPNQGSSTEVPGNSHPRDPPGLPEDSDLATALHRLSLRRQNYLSEKQFFAEEWERKLQILAEQEEEVSSCEALTENLASFCTDQSETTELGSAGCLRGFMPEKLQIVKPLEGSQTLHHWQQLAQPNLGTILDPRPGVITKGFTQMPKDAVYHISDLEEDEEVGITFQVQQPLQLEQKPAPPPPVTGIFLPPMTSAGGPVSVATSNPGKCLSFTNSTFTFTTCRILHPSDITQVTPSSGFPSLSCGSSA
modifications: 35S-methionine label
With B2, the binding result in the assay with GST-Miro1 WT [2] is listed as “binds”.
